Assay results: patent publication US5948635A, “Totally Synthetic Affinity Reagents” (University of North Carolina at Chapel Hill, priority 1995, dated 1999)
Entries after “also recorded” stand apart in the source; their conditions may differ. Part of at least one peptide drawing is inferred or uncertain, most often the ends. No end group written: not given here.

What was measured:
[1] = target: calmodulin (Homo sapiens, UniProt P0DP23); assay: Competition with SEQ ID NO 176 peptide binding to calmodulin; settings: FIG. 20, FIG. 23
From the text: To examine where the SEQ ID NO 176 peptide bound the CaM molecule, we attempted to block binding with other peptides that have been previously shown to bind to the central, linker region of CaM (See Persechini and Kretsinger, 1988, J. Cardiovasc. Pharmacol 12:S1-12; Ikura et al., 1992, Cell Calcium 13:391-400; Chapman et al., 1992, Biochemistry 31:12819-25; Meador et al., 1992, Science 257: 1251-1255). It is this region of CaM that binds various proteins to regulate their activity in a Ca^2+ -dependent manner.
If the site responsible for binding of the CaM specific TSARs to CaM were only a five or six residue peptide, then one would have expected to isolate about 10-20 CaM binding TSARs from the TSAR-12 library. However, since only one particular CaM binding TSAR was repeatedly isolated, it appears that the site of interaction between the CaM specific TSAR and CaM is complex, i.e., the site requires more than simply 5 or 6 residues. To illustrate regions of the SEQ ID NO 176 that are involved in binding to CaM, the ability of 4 modified peptides to compete with SEQ ID NO 176 binding for calmodulin were examined. The modified peptides were (a) the N-terminal 13 residues […] SEQ ID NO 185; (b) the C-terminal 13 residues […] SEQ ID NO 186; (c) the SEQ ID NO 176 peptide where, at position 4, W was changed to A--[…] SEQ ID NO. 184; and (d) a peptide having the reverse sequence […] SEQ ID NO. […]

[2] = tested on: B139 monoclonal antibody; assay: Competitive binding ELISA: inhibition of B139 binding to LNCaP extract; parameters: species or system murine; settings: B139 9 ng/ml; FIG. 13
Description: The TSAR-based peptide (SEQ ID NO 31) concentration ranged from 1.75 to 1130 nM. […] Two additional control peptides (amide form) having the following amino acid sequences: RGD-21: NH2 -[…]-CONH2 (SEQ ID NO 32) and CYT-379: NH2 -[…]-CONH2 (SEQ ID NO 33) were also evaluated. Herein these control peptides are referred to as Control Peptide 1 and Control Peptide 2. […] The B139 monoclonal antibody, which is a murine IgG1 monoclonal antibody that reacts with all human epithelial cells, recognizes a different antigen in the LNCaP extract from that recognized by the 7E11-C5 antibody. The control B139 monoclonal antibody was used at a concentration of 9 ng/ml. The results obtained are illustrated in FIG. 13.

[3] = tested on: B139 monoclonal antibody; assay: ELISA of control antibody binding to immobilized peptide; parameters: species or system murine; settings: peptide coated at 5 μg/ml; FIG. 15
Description: (§1) Peptides, diluted in 10% PBS (Dulbecco's, pH 7.2, Hazelton), were immobilized by adsorption on polyvinylchloride plates. SEQ ID NO 31 (amide form) was diluted in 10% PBS at 0.5, 5, 50 or 500 μg/ml. Control peptide 2 in 10% PBS at the same range of concentrations served as the control. A 50 μl volume of the test or control peptide solution was added to each well and incubated overnight at 4° C. The peptide solution was removed and 10% BSA-PBS was added as blocking solution. […] Bound 7E11-C5 monoclonal antibody was detected with anti-mouse IgG1 -HRP as described above herein.

[4] = tested on: 7E11-C5 monoclonal antibody; assay: ELISA of antibody binding to immobilized peptide; parameters: species or system mouse; settings: peptide adsorbed on polyvinylchloride plates, 0.5-500 μg/ml; FIG. 14, 15
Description: as §1

[5] = tested on: 7E11-C5 monoclonal antibody; assay: Competitive binding ELISA: inhibition of 7E11-C5 binding to LNCaP cell lysate antigen; parameters: species or system mouse; settings: FIG. 13
Description: Each well of a polyvinylchloride 96-well ELISA plate (Cooke, Alexandria, Va.) was coated with an LNCAP human prostate carcinoma cell (ATCC # CRL 1740) lysate. Lysates were prepared by harvesting confluent LNCaP cell cultures, resuspending cells in 4 volumes of 1 mM MgCl2 for 5 minutes, mixing with 2 μg of DNase (Boehringer Mannheim, Indianapolis, Ind.) and homogenizing using 40 strokes in a Dounce homogenizer (Wheaton, Millville, N.J.). LNCaP lysate (50 μl per well of a 1:50 dilution in 0.1×PBS [Dulbecco's pH 7.2, JRH, Denver, Pa.]) was air dried overnight at 37° C. onto wells of the ELISA plate. […]
Plates were washed 4 times with 0.05% Tween-20 in PBS. Bound monoclonal antibody 7E11-C5 was detected by: (1) incubating with 50 μl/well of anti-mouse IgG1 -HRP (Fisher Biotech, Orangeburg, N.Y.) diluted to 0.4 ng/ml in 1% BSA-PBS, for 60 minutes at room temperature; (2) washing plates 6 times with 0.05% Tween-20 in PBS; and (3) adding 100 μl/well ABTS substrate [200 μl ABTS, (Boehringer Mannheim), 10 ml citrate buffer (pH 4), 10 μl H2 O2 ]. Optical density of the reactions products was determined by endpoint analysis on a Multiscan plate reader (Molecular Devices, Menlo Park, Calif.). The competitive inhibition (%) was determined by comparing the reactivity of the positive control to the test samples. […]

[6] = tested on: C46 monoclonal antibody; assay: ELISA of 8-mer peptides on pins with C46 antibody; type: binding, mouse; settings: FIG. 18
[7] = target: T1, CaM (Homo sapiens, UniProt P0DP23); assay: Steady state fluorescence of peptide with CaM; type: binding; settings: Ca2+-dependent
[8] = target: T1, CaM; assay: ELISA of biotinylated peptide binding to immobilized CaM

With “KASALRTQARAAGGRLSDEIWRPVTS [SEQ ID NO. 183]” the “competition with binding of peptide SEQ ID NO 176 to CaM” value [1] was “none of the four peptides were able to compete”.
In the case of LYANPGMYSRLHSPA-NH2 [SEQ ID NO 31], the “competitive inhibition of B139 binding to LNCaP extract by peptide” value [2] is reported as “neither SEQ ID NO 31 (amide form) nor either of Control Peptide 1 and Control Peptide 2 competitively inhibited the binding”, the “binding of B139 to immobilized peptide” value [3] is reported as “failed to bind” and the “binding of 7E11-C5 to immobilized peptide” value [4] is reported as “Dose dependent binding; also recorded: specifically bound”. For the same substance, the IC50 ([5]; peptide 1.75 to 1130 nM, 7E11-C5 30 ng/ml (0.2 nM), read-out: IC50 for inhibition of 7E11-C5 binding to LNCaP extract) was roughly 0.16 µM and the “competitive inhibition of 7E11-C5 binding to LNCaP extract by peptide” value ([5]; peptides, amide form) was “effectively competitively inhibited”.
“SNSKSPGW [SEQ ID NO 157, S N S K S P G W]” was tested, and the “reactivity with the C46 antibody” value [6] was “showed significant reactivity”.
With STVPRWIEDSLRG [SEQ ID NO 185] the “competition with binding of peptide SEQ ID NO 176 to CaM” value [1] was “none of the four peptides were able to compete”.
With “STVPRWIEDSLRGGAARAQTRLASAK [SEQ ID NO 176]” the Kd [7] was 1 µM, the “time for 50% dissociation of the peptide-CaM complex” value ([8]; 25 μg/ml CaM in buffer, room temperature) was ~ 20 min and the “calcium dependence of peptide binding to CaM” value ([8]; 1, 5 or 10 mM EGTA, FIG. 19) was “bind CaM in a calcium dependent manner”. The “binding of biotinylated peptide to immobilized CaM” value ([8]; ELISA, streptavidin-linked alkaline phosphatase) was “bound immobilized CaM efficiently”.
